{"source": "PubChem BioAssay AID1259308 | NCATS, 2017", "assay": "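Knock-downs that increase output of a recombinant reporter protein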 (primary screen)", "cells": "human HEK293 embryonic kidney cells stably expressing firefly luciferase (HEK-CMV-Luc2-Hygro)", "knock-down reagent": "single siRNA against human genes, 0.8 pmol siRNA per well", "duration": "72 h", "read-out": "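Luciferase light (ONE-Glo) measured on one replicate plate set and viability (CellTiter-Glo) on the other, scaled to a negative control siRNA, with robust z-scores and luciferase per cell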", "direction": "total luciferase, z-score: higher = more reporter protein produced", "active means": "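Active when the median/MAD z-score for overall luciferase is greater than 3; a gene was taken forward for validation with new siRNAs if at least two of its three siRNAs passed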", "meaning of the calls": "active = raised luciferase; inactive = no rise", "note": "The deposit covers about 59,000 reagents; this is a part drawn at random. About 1,510 of all reagents (2.6%) count as active. 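Calls use total luciferase alone and ignore viability, so some active siRNAs may act by altering cell number.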 The numbers tell different reagents against one gene apart. Not all columns of the deposit are shown."}
{"gene knocked down":"CCDC33","reagent no.":1,"total luciferase, z-score":-1.36,"activity call":"inactive"}
{"gene knocked down":"CCDC33","reagent no.":2,"total luciferase, z-score":-1.89,"activity call":"inactive"}
{"gene knocked down":"CCDC33","reagent no.":3,"total luciferase, z-score":-1.9,"activity call":"inactive"}
{"gene knocked down":"CAPG","reagent no.":1,"total luciferase, z-score":0.679,"activity call":"inactive"}
{"gene knocked down":"CAPG","reagent no.":2,"total luciferase, z-score":1.26,"activity call":"inactive"}
{"gene knocked down":"CAPG","reagent no.":3,"total luciferase, z-score":-1.09,"activity call":"inactive"}
{"gene knocked down":"KSR2","reagent no.":1,"total luciferase, z-score":0.991,"activity call":"inactive"}
{"gene knocked down":"KSR2","reagent no.":2,"total luciferase, z-score":-0.585,"activity call":"inactive"}
{"gene knocked down":"KSR2","reagent no.":3,"total luciferase, z-score":3.12,"activity call":"active"}
{"gene knocked down":"SLC30A9","reagent no.":1,"total luciferase, z-score":-0.498,"activity call":"inactive"}
{"gene knocked down":"SLC30A9","reagent no.":2,"total luciferase, z-score":-0.372,"activity call":"inactive"}
{"gene knocked down":"SLC30A9","reagent no.":3,"total luciferase, z-score":-0.54,"activity call":"inactive"}
{"gene knocked down":"TMEM106B","reagent no.":1,"total luciferase, z-score":0.698,"activity call":"inactive"}
{"gene knocked down":"TMEM106B","reagent no.":2,"total luciferase, z-score":0.0443,"activity call":"inactive"}
{"gene knocked down":"TMEM106B","reagent no.":3,"total luciferase, z-score":2.38,"activity call":"inactive"}
{"gene knocked down":"MS4A8","reagent no.":1,"total luciferase, z-score":1.2,"activity call":"inactive"}
{"gene knocked down":"MS4A8","reagent no.":2,"total luciferase, z-score":-0.585,"activity call":"inactive"}
{"gene knocked down":"MS4A8","reagent no.":3,"total luciferase, z-score":-0.697,"activity call":"inactive"}
{"gene knocked down":"ATPAF2","reagent no.":1,"total luciferase, z-score":0.363,"activity call":"inactive"}
{"gene knocked down":"ATPAF2","reagent no.":2,"total luciferase, z-score":-0.984,"activity call":"inactive"}
{"gene knocked down":"ATPAF2","reagent no.":3,"total luciferase, z-score":-0.67,"activity call":"inactive"}

A portion from the list above, as a working copy:
{"gene knocked down":"SLC30A9","reagent no.":2,"total luciferase, z-score":-0.372,"activity call":"inactive"}
{"gene knocked down":"SLC30A9","reagent no.":3,"total luciferase, z-score":-0.54,"activity call":"inactive"}
